Data as given in PubChem BioAssay AID1508588 (Peter MacCallum Cancer Centre, 2020)

Purpose: 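Knock-downs boosting vemurafenib effects on melanoma cell growth or lactate release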 (primary screen)
Cell system: human WM266.4 melanoma cells (BRAF V600 mutant)
Knock-down reagent: siRNA pool against human genes, 40 nM
Duration: 96 h from transfection to read-out
Treatment: vemurafenib 300 nM (about IC25), added 48 h after transfection, for 48 h; comparison arm got DMSO vehicle only
Measurement: 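Ratios to non-targeting siRNA for cell gain, counted as DAPI nuclei after minus before drug and averaged over two replicates, and for absorbance-read medium lactate per cell; both binned into fold-change classes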
Reading the numbers: cell gain with vemurafenib: higher = more cell gain than with non-targeting siRNA; lactate per cell with vemurafenib: higher = more lactate made per cell
Call rule: 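a knock-down counts as enhancing when its fold-change classes with vehicle and with vemurafenib, taken together, show a stronger drug effect on cell gain or lactate per cell; exact class pairs not stated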
Meaning of the calls: active = enhances vemurafenib effect; inactive = no enhancement seen
The deposit covers about 18,000 reagents; this is a part drawn at random. In the full data, 790 (4.4%) got an active call. 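Calls rest on a combination of fold-change classes in drug and vehicle arms, not all shown here.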 Unmarked entries are inactive.

target gene,cell gain with vemurafenib,lactate per cell with vemurafenib
CTSK (cathepsin K),0.16,1.57
CCDC183 (coiled-coil domain containing 183),0.62,0.87
RNPEP (arginyl aminopeptidase),0.54,0.88
XDH (xanthine dehydrogenase),0.94,0.96
RARG (retinoic acid receptor gamma),0.28,1.29
ZNF34 (zinc finger protein 34),0.39,1.04
PANK3 (pantothenate kinase 3),0.33,0.8
SNAI2 (snail family transcriptional repressor 2),1.02,0.53
AATF (apoptosis antagonizing transcription factor),0.79,0.73
CYP27A1 (cytochrome P450 family 27 subfamily A member 1),0.29,0.88
PLEKHG1 (pleckstrin homology and RhoGEF domain containing G1),0.2,1.54
ZFR (zinc finger RNA binding protein),0.44,1.02
MANSC1 (MANSC domain containing 1),0.16,1.68
CRIPT (CXXC repeat containing interactor of PDZ3 domain),0.8,0.7
UBE2S (ubiquitin conjugating enzyme E2 S),0.82,0.59
JAG2 (jagged canonical Notch ligand 2),0.13,1.52
CDS1 (CDP-diacylglycerol synthase 1),0.4,0.89
CCL26 (C-C motif chemokine ligand 26),0.18,2.71
SEMG2 (semenogelin 2),0.85,1.49
"NAT8B (N-acetyltransferase 8B (putative, gene/pseudogene))",0.74,0.97
DHX57 (DExH-box helicase 57),0.22,1.34
"NPDC1 (neural proliferation, differentiation and control 1)",0.4,1.47
ZNF470 (zinc finger protein 470),0.51,1.43
FAM209B (family with sequence similarity 209 member B),0.64,0.98
HBG2 (hemoglobin subunit gamma 2),0.37,0.92
FYB1 (FYN binding protein 1),0.91,0.63
CHRNB1 (cholinergic receptor nicotinic beta 1 subunit),1.13,0.54
FITM1 (fat storage inducing transmembrane protein 1),-0.02,4.95
ANO2 (anoctamin 2),0.39,1.6
HNF4A (hepatocyte nuclear factor 4 alpha),0.72,1
SNTB1 (syntrophin beta 1),0.69,0.69
OR10H3 (olfactory receptor family 10 subfamily H member 3),0.88,0.56
C19orf12 (chromosome 19 open reading frame 12),0.38,1.25
ANGPTL5 (angiopoietin like 5),0.42 (active),0.68
SLC11A2,0.45,1.74
NOTCH4 (notch receptor 4),0.66,0.7
NDUFS3 (NADH:ubiquinone oxidoreductase core subunit S3),0,3.12
ZNF485 (zinc finger protein 485),0.85,0.82
HMG20A (high mobility group 20A),0.58,1
PLXND1 (plexin D1),0.44,0.9
ADCY7 (adenylate cyclase 7),0.58,1.52
SEMA6B (semaphorin 6B),1 (active),0.57
NPL (N-acetylneuraminate pyruvate lyase),0.8,0.6
JPH1 (junctophilin 1),0.53,1.71
MZB1 (marginal zone B and B1 cell specific protein),0.99,0.54
ADRA2C (adrenoceptor alpha 2C),0.44,0.8
PHYKPL (5-phosphohydroxy-L-lysine phospho-lyase),0.24,1.29
KPNA2 (karyopherin subunit alpha 2),0.98 (active),0.64
MNAT1 (MNAT1 component of CDK activating kinase),0.97,0.86
TYW1 (tRNA-yW synthesizing protein 1 homolog),0.83,0.65
LPO (lactoperoxidase),0.55,0.61
PRKAB2 (protein kinase AMP-activated non-catalytic subunit beta 2),0.19,1.04
PFDN4 (prefoldin subunit 4),0.96,0.59
RALGAPB (Ral GTPase activating protein non-catalytic subunit beta),0.62,1.52
TRIM11 (tripartite motif containing 11),0.51,1.08
TOGARAM1 (TOG array regulator of axonemal microtubules 1),0.44,0.81
SMC3 (structural maintenance of chromosomes 3),0.49,1.03

A run of entries from the list above, for reference:
target gene,cell gain with vemurafenib,lactate per cell with vemurafenib
XDH (xanthine dehydrogenase),0.94,0.96
RARG (retinoic acid receptor gamma),0.28,1.29
ZNF34 (zinc finger protein 34),0.39,1.04
PANK3 (pantothenate kinase 3),0.33,0.8
SNAI2 (snail family transcriptional repressor 2),1.02,0.53
AATF (apoptosis antagonizing transcription factor),0.79,0.73
CYP27A1 (cytochrome P450 family 27 subfamily A member 1),0.29,0.88
PLEKHG1 (pleckstrin homology and RhoGEF domain containing G1),0.2,1.54
ZFR (zinc finger RNA binding protein),0.44,1.02
